Reference: patent US7956188B2, “Acetamide compounds as fungicides” (Syngenta Crop Protection, Inc., priority 2004, dated 2011)
Some of these results come from one statement about several compounds together.

What was measured:
Pythium ultimum = Pythium ultimum (Damping off) growth inhibition in potato dextrose broth, microtiter plate; assay type: cell-based; settings: 20 ppm, 24° C., inhibition of growth determined photometrically after 48 hours
[1] = tested on: Erysiphe graminis f.sp. hordei; assay: leaf disk assay, Erysiphe graminis f.sp. hordei (barley powdery mildew); assay type: in vivo; settings: 200 ppm; barley leaf segments, preventive, assessed four days after inoculation
Plasmopara viticola = assay: leaf disk assay, Plasmopara viticola (downy mildew of grapevine); assay type: in vivo; settings: 200 ppm; grapevine leaf disks, preventive, assessed seven days after inoculation

Structure (SMILES): CSC(Oc1ccc2ncc(Br)cc2c1)C(=O)NCc1cccs1 (stereo not shown) [124 (57)]
- control of fungal infection (Pythium ultimum): ≥ 60%

Structure (SMILES): CSC(Oc1cc(Br)c2ncc(Br)cc2c1)C(=O)N1CCOCC1 (stereo not shown) [211 (61)]
- control of fungal infection [1]: ≥ 60%

Structure (SMILES): CSC(Oc1ccc2ncc(Br)cc2c1)C(=O)NC(C)c1ccc(S(C)(=O)=O)cc1 (stereo not shown) [185 (57)]
- control of fungal infection (Pythium ultimum): ≥ 60%
- control of fungal infection [1]: ≥ 60%

Structure (SMILES): CSC(Oc1ccc2ncc(Br)cc2c1)C(=O)N(C)CCC#N (stereo not shown) [33 (57)]
- control of fungal infection [1]: ≥ 60%

Structure (SMILES): CSC(Oc1cc(Br)c2ncc(Br)cc2c1)C(=O)NC(C)(C#N)C(C)C (stereo not shown) [38 (61)]
- control of fungal infection [1]: ≥ 60%

Structure (SMILES): CSC(Oc1ccc2ncc(Cl)cc2c1)C(=O)NC(C)(C)c1ccccc1 (stereo not shown) [189 (58)]
- control of fungal infection [1]: ≥ 60%

Structure (SMILES): CSC(Oc1ccc2ncc(Br)cc2c1)C(=O)NCc1cc(F)c(F)cc1F (stereo not shown) [178 (57)]
- control of fungal infection [1]: ≥ 60%

Structure (SMILES): C=CCNC(=O)C(Oc1ccc2ncc(Br)cc2c1)SC (stereo not shown) [70 (57)]
- control of fungal infection (Pythium ultimum): ≥ 60%
- control of fungal infection [1]: ≥ 60%

Structure (SMILES): CSC(Oc1ccc2ncc(Br)cc2c1)C(=O)NCc1ccccc1F (stereo not shown) [152 (57)]
- control of fungal infection (Plasmopara viticola): ≥ 60%
- control of fungal infection [1]: ≥ 60%

Structure (SMILES): C=CCN(CC=C)C(=O)C(Oc1ccc2ncc(Br)cc2c1)SC (stereo not shown) [71 (57)]
- control of fungal infection [1]: ≥ 60%

Structure (SMILES): CSC(Oc1ccc2ncc(Cl)cc2c1)C(=O)NCc1cccs1 (racemic) [124 (58)]
- control of fungal infection [1]: ≥ 60%

Structure (SMILES): CSC(Oc1cc(Cl)cc(Cl)c1)C(=O)NC(C)(C#N)Cc1ccc(Cl)cc1 (stereo not shown) [227 (1)]
- control of fungal infection (Plasmopara viticola): ≥ 60%

Structure (SMILES): C#CCN(C)C(=O)C(Oc1ccc2ncc(Br)cc2c1)SC (racemic) [85 (57)]
- control of fungal infection [1]: ≥ 60%

Structure (SMILES): CSC(Oc1ccc2ncc(Cl)cc2c1)C(=O)NCc1ccccc1 (stereo not shown) [150 (58)]
- control of fungal infection [1]: ≥ 60%

Structure (SMILES): C=CCNC(=O)C(Oc1cc(C)c(C)c(C)c1)SC (racemic) [70 (13)]
- control of fungal infection [1]: ≥ 60%

Structure (SMILES): COc1cc(CNC(=O)C(Oc2ccc3ncc(Br)cc3c2)SC)cc(OC)c1OC (stereo not shown) [180 (57)]
- control of fungal infection (Plasmopara viticola): ≥ 60%
- control of fungal infection [1]: ≥ 60%

Structure (SMILES): CSC(Oc1ccc2ncc(Cl)cc2c1)C(=O)NCc1ccco1 (stereo not shown) [122 (58)]
- control of fungal infection (Pythium ultimum): ≥ 60%
- control of fungal infection [1]: ≥ 60%

Structure (SMILES): CSCC(C)(C#N)NC(=O)C(Oc1ccc2ncc(Br)cc2c1)SC (stereo not shown) [53 (57)]
- control of fungal infection [1]: ≥ 60%

Structure (SMILES): CSC(Oc1cc(Br)c2ncc(Br)cc2c1)C(=O)NCc1cccs1 (stereo not shown) [124 (61), 2-(3,8-dibromoquinolinyl-6-oxy)-2-methylthio-N-(2-thienylmethyl)acetamide]
- control of fungal infection [1]: ≥ 60%

Structure (SMILES): CSC(Oc1ccc2ncc(Br)cc2c1)C(=O)N(C)C (racemic) [2 (57)]
- control of fungal infection (Pythium ultimum): ≥ 60%

Structure (SMILES): CSC(Oc1ccc2ncc(Br)cc2c1)C(=O)NCc1ccccc1Cl (racemic) [153 (57)]
- control of fungal infection (Plasmopara viticola): ≥ 60%
- control of fungal infection [1]: ≥ 60%

Structure (SMILES): CSC(Oc1ccc2ncc(Cl)cc2c1)C(=O)Nc1ccc(F)cc1 (racemic) [133 (58)]
- control of fungal infection (Pythium ultimum): ≥ 60%

Structure (SMILES): CCOC(=O)C(NC(=O)C(Oc1ccc2ncc(Br)cc2c1)SC)c1ccccc1 (stereo not shown) [192 (57)]
- control of fungal infection [1]: ≥ 60%

Structure (SMILES): CNC(=O)C(C)(C)NC(=O)C(Oc1ccc(C(F)(F)F)cc1)SC (stereo not shown) [62 (31)]
- control of fungal infection (Plasmopara viticola): ≥ 60%

Structure (SMILES): CSC(Oc1ccc2ncc(Br)cc2c1)C(=O)NC(C)c1ccc([N+](=O)[O-])cc1 (stereo not shown) [183 (57)]
- control of fungal infection (Plasmopara viticola): ≥ 60%
- control of fungal infection [1]: ≥ 60%

Structure (SMILES): CSC(Oc1ccc2ncc(Br)cc2c1)C(=O)NCc1ccccc1OC(F)F (stereo not shown) [158 (57)]
- control of fungal infection [1]: ≥ 60%

Structure (SMILES): CSCC(C)(C#N)NC(=O)C(Oc1cc(Cl)cc(Cl)c1)SC (stereo not shown) [53 (1)]
- control of fungal infection (Plasmopara viticola): ≥ 60%

Structure (SMILES): CSC(Oc1ccc2ncc(Br)cc2c1)C(=O)NCc1ccco1 (stereo not shown) [122 (57)]
- control of fungal infection (Pythium ultimum): ≥ 60%
- control of fungal infection [1]: ≥ 60%

Structure (SMILES): CSC(Oc1ccc2ncc(Br)cc2c1)C(=O)NC(C)(C#N)Cc1ccc(Cl)cc1 (mixture of isomers) [227 (57)]
- control of fungal infection (Plasmopara viticola): ≥ 60%

Structure (SMILES): CSC(Oc1cc(Br)c2ncc(Br)cc2c1)C(=O)NCc1ccccc1 (racemic) [150 (61)]
- control of fungal infection [1]: ≥ 60%

Structure (SMILES): CCOCCN(CCOCC)C(=O)C(Oc1ccc2ncc(Br)cc2c1)SC (racemic) [45 (57)]
- control of fungal infection [1]: ≥ 60%

Structure (SMILES): CSC(Oc1ccc2ncc(Br)cc2c1)C(=O)NCc1cccc(Cl)c1 (stereo not shown) [161 (57)]
- control of fungal infection [1]: ≥ 60%

Structure (SMILES): COC(=O)C(C)NC(=O)C(Oc1ccc2ncc(Br)cc2c1)SC (stereo not shown) [59 (57)]
- control of fungal infection (Pythium ultimum): ≥ 60%
- control of fungal infection [1]: ≥ 60%

Structure (SMILES): C=CCNC(=O)C(Oc1ccc2nc(Cl)sc2c1)SC (stereo not shown) [70 (81)]
- control of fungal infection (Pythium ultimum): ≥ 60%

Structure (SMILES): CSC(Oc1ccc2ncc(Br)cc2c1)C(=O)N(C)C(C)C (racemic) [6 (57)]
- control of fungal infection [1]: ≥ 60%

Structure (SMILES): COCC(C)(C#N)NC(=O)C(Oc1ccc2ccc(Br)cc2c1)SC (stereo not shown) [52 (67)]
- control of fungal infection [1]: ≥ 60%

Structure (SMILES): CSC(Oc1ccc2ncc(Cl)cc2c1)C(=O)Nc1ccccc1C#N (stereo not shown) [128 (58)]
- control of fungal infection [1]: ≥ 60%

Structure (SMILES): CSC(Oc1ccc2ncc(Br)cc2c1)C(=O)Nc1ccc(F)cc1 (stereo not shown) [133 (57)]
- control of fungal infection (Pythium ultimum): ≥ 60%

Structure (SMILES): CSC(Oc1ccc2occc2c1)C(=O)NC(C)(C)c1ccccc1 (stereo not shown) [189 (44)]
- control of fungal infection (Pythium ultimum): ≥ 60%

Structure (SMILES): CSC(Oc1ccc2ncc(Br)cc2c1)C(=O)NCc1c(F)cccc1F (stereo not shown) [171 (57)]
- control of fungal infection (Plasmopara viticola): ≥ 60%

Structure (SMILES): CCN(CC)C(=O)C(Oc1ccc2ncc(Br)cc2c1)SC (stereo not shown) [4 (57)]
- control of fungal infection [1]: ≥ 60%

Structure (SMILES): CSC(Oc1ccc2ncc(Br)cc2c1)C(=O)N1CCN(c2ccc([N+](=O)[O-])cc2)CC1 (stereo not shown) [216 (57)]
- control of fungal infection [1]: ≥ 60%

Structure (SMILES): CSC(Oc1ccc2nc(Cl)sc2c1)C(=O)NC(C)(C)C#N (stereo not shown) [35 (81)]
- control of fungal infection (Pythium ultimum): ≥ 60%

Structure (SMILES): CSC(Oc1ccc2ncc(Br)cc2c1)C(=O)NC(C#N)c1ccccc1 (stereo not shown) [187 (57)]
- control of fungal infection (Plasmopara viticola): ≥ 60%

Structure (SMILES): COc1cccc(F)c1CNC(=O)C(Oc1ccc2ncc(Br)cc2c1)SC (stereo not shown) [177 (57)]
- control of fungal infection [1]: ≥ 60%

Structure (SMILES): COc1ccccc1CNC(=O)C(Oc1ccc2ncc(Br)cc2c1)SC (racemic) [157 (57)]
- control of fungal infection [1]: ≥ 60%

Structure (SMILES): CSC(Oc1ccc2ncc(Br)cc2c1)C(=O)NCc1ccccc1[N+](=O)[O-] (stereo not shown) [155 (57)]
- control of fungal infection (Plasmopara viticola): ≥ 60%

Structure (SMILES): CSC(Oc1ccc2ncc(-c3ccccc3)cc2c1)C(=O)NC(C)(C)C (stereo not shown) [12 (65), 2-(3-phenylquinolinyl-6-oxy)-2-methylthio-N-(2-methylprop-2-yl)acetamide]
- control of fungal infection (Pythium ultimum): ≥ 60%

Structure (SMILES): CSC(Oc1ccc2ncc(Br)cc2c1)C(=O)NCc1ccc2c(c1)CCO2 (stereo not shown) [144 (57)]
- control of fungal infection (Plasmopara viticola): ≥ 60%
- control of fungal infection [1]: ≥ 60%

Structure (SMILES): CCCCN(C)C(=O)C(Oc1ccc2ncc(Br)cc2c1)SC (stereo not shown) [8 (57)]
- control of fungal infection (Plasmopara viticola): ≥ 60%
- control of fungal infection [1]: ≥ 60%

Structure (SMILES): COc1cccc(CNC(=O)C(Oc2ccc3ncc(Br)cc3c2)SC)c1 (racemic) [164 (57)]
- control of fungal infection (Plasmopara viticola): ≥ 60%
- control of fungal infection [1]: ≥ 60%

Structure (SMILES): CSC(Oc1ccc2ncc(Br)cc2c1)C(=O)N1CC(C)OC(C)C1 (mixture of isomers) [212 (57)]
- control of fungal infection [1]: ≥ 60%

Structure (SMILES): CSC(Oc1ccc2ncc(Cl)cc2c1)C(=O)Nc1nccs1 (stereo not shown) [120 (58)]
- control of fungal infection [1]: ≥ 60%

Structure (SMILES): CSC(Oc1ccc2ncc(Br)cc2c1)C(=O)NCc1cccc(C)c1 (stereo not shown) [163 (57)]
- control of fungal infection [1]: ≥ 60%

Structure (SMILES): CSC(Oc1cc(Br)c2ncc(Br)cc2c1)C(=O)NC(C)(C)C (racemic) [12 (61)]
- control of fungal infection [1]: ≥ 60%
